Experimental data taken from PubChem BioAssay AID624297 (National Center for Advancing Translational Sciences (NCATS), 2012).
“And” between values parts separate entries of the source, which are not always exact repeats. Equal values may be shown once. The campaign covered roughly 340,000 compounds. About 6,200 (1.8%) were called active. The shares of active, inactive and inconclusive entries below differ from those in the screen. Calls come from the whole dose curve; as a rule, active = well fitted activation curve with a large enough effect; inconclusive = small, poorly fitted or top-dose-only effect; inactive = no such curve, though single readings can be large or run the other way. A potency beside an inconclusive call is a rough fit, not a confirmed value.

Test: A quantitative high throughput screen for small molecules that induce DNA re-replication in SW480 colon adenocarcinoma cells. Note: nearly all actives have a fitted effect of over 55% in size.
Details: Hoechst DNA content imaging, 48 h; series mostly up to 46.1 µM
Method in brief: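 Compounds, transferred as 23 nL by pin tool, were incubated with cells for 48 hr; DNA content per nucleus was then quantified by Hoechst staining and fluorescence plate imaging.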
Potency is the fitted concentration of half-maximal effect.

With `Cc1ccc(SCc2c(-c3ccccc3)nn(C)c2Cl)cc1` as the compound, how does the Potency read?
Its Potency is “inactive”.

For `O=C(CCN1CCN(c2ccccc2)CC1)Nc1cccc(Br)c1`, which Potency is on record?
Its Potency is “inactive”.

Which Potency does the source give for `CN(C)CCCN(C(=O)c1cc(Cl)sc1Cl)c1nc2cc3c(cc2s1)OCO3` here?
The Potency was “inactive”.

With `COc1ccc2nc(NC(=O)c3cccc(-c4cc5ccccc5oc4=O)c3)sc2c1` as the compound, how does the Potency read?
Its Potency is inconclusive: 20.6 µM [activator, single point].

For `Cc1nn(C)c(C)c1NS(=O)(=O)c1ccc(Cl)s1`, which Potency is on record?
The Potency was “inactive”.

With `CCOC(=O)c1sc(NC(=O)CSc2n[nH]c(-c3ccc(Cl)cc3Cl)n2)c(C#N)c1C` as the compound, how does the Potency read?
Its Potency is “inactive”.

With `CCOC(=O)N1CCN(S(=O)(=O)c2cc(OCC(=O)NC3CCCCC3)c(C)cc2Cl)CC1` as the compound, how does the Potency read?
The Potency was inconclusive: 0.092 µM [activator, full curve, poor fit].

Which Potency does the source give for `O=C(Nc1ccc(Cl)c(S(=O)(=O)N2CCOCC2)c1)c1ccc2c(c1)OCCO2` here?
The Potency was “inactive”.

Which Potency does the source give for `Cc1ccc(CN2CCSc3ccc(C(=O)NC4CCCC4)cc32)cc1` here?
The Potency was “inactive”.

For `Cc1nn(CC(=O)NCc2cccc3ccccc23)c(=O)c2ccccc12`, which Potency is on record?
Its Potency is inconclusive: 32.6 µM [activator, partial curve, poor fit].

For `CCc1ccc(C(=O)Cn2ncc(Cl)c(Cl)c2=O)cc1`, which Potency is on record?
Its Potency is active: 7.31 µM.

With `COc1ccc(OCC(=O)OCC(=O)c2ccc(OC)c(F)c2)cc1` as the compound, how does the Potency read?
Its Potency is “inactive”.

Which Potency does the source give for `CN1C(=O)c2ccc(N3CCCC3)cc2C1=O` here?
Its Potency is “inactive”.

For `CCN1CCN(S(=O)(=O)c2ccc(Cl)c(C(=O)Nc3ccc(OC(F)F)cc3)c2)CC1`, which Potency is on record?
Its Potency is “inactive”.

Which Potency does the source give for `O=C(O)CSc1cc(NS(=O)(=O)c2ccc(Br)cc2)c2ccccc2c1O` here?
Its Potency is inconclusive: 14.6 µM [activator, partial curve].

Which Potency does the source give for `Cc1ccc(C)c(-c2cc(C(=O)NCc3cccs3)c3ccccc3n2)c1` here?
Its Potency is inconclusive: 16.4 µM [activator, partial curve, poor fit].

Which Potency does the source give for `COc1ccc(C2CCCN2CC(O)COc2ccccc2C(C)C)cc1` (configuration not stated) here?
Its Potency is inconclusive: 20.6 µM [activator, single point].

Which Potency does the source give for `CCCCc1ccc(Nc2nc(CCC)cc(=O)[nH]2)cc1` here?
Its Potency is inconclusive: 25.9 µM [activator, single point].

For `COc1ccc(CNC(=O)Cn2ncn3c(cc4ccccc43)c2=O)cc1`, which Potency is on record?
Its Potency is inconclusive: 29.1 µM [activator, single point].

Which Potency does the source give for `Cc1ccc(C)c2nc(N3CCCC3)c(C#N)cc12` here?
Its Potency is inconclusive: 32.6 µM [activator, partial curve, poor fit].

Which Potency does the source give for `Cc1cc(C(=O)NC2CCCCC2)c2cc(F)ccc2n1` here?
Its Potency is inconclusive: 6.51 µM [activator, single point].

With `Cc1cc(S(=O)(=O)NCCC2=CCCCC2)ccc1Br` as the compound, how does the Potency read?
The Potency was “inactive”.

With `O=C(CN1C(=O)/C(=C/c2ccccc2)SC1=S)N1CCN(CCc2ccccn2)CC1` as the compound, how does the Potency read?
The Potency was inconclusive: 18.4 µM [activator, single point].

For `Cc1nc(NCCN2CCOCC2)c2oc3ccccc3c2n1`, which Potency is on record?
Its Potency is “inactive”.

Which Potency does the source give for `Cc1cc(C(C)(C)CC(C)(C)C)ccc1OCCOCC[N+](C)(C)Cc1ccccc1` here?
The Potency was “inactive”.

Which Potency does the source give for `CC(C)(C)NC(=O)C(c1ccco1)N(C(=O)Cn1nnc(-c2ccc(F)cc2)n1)c1ccccc1F` (configuration not stated) here?
Its Potency is inconclusive: 16.4 µM [activator, single point].

For `CCOC(=O)C1CCN(C(=O)c2ccc3c(=O)n4nc(Nc5cc(C)ccc5C)sc4nc3c2)CC1`, which Potency is on record?
The Potency was inconclusive: 18.4 µM [activator, single point].

For `Cc1ccc(N(CC(O)CON=C2c3ccccc3-c3ccccc32)S(C)(=O)=O)cc1` (configuration not stated), which Potency is on record?
Its Potency is “inactive”.

With `CCCCCC(=O)Nc1cccc(C2=NOC3(C2)C[C@H](C(N)=O)N(C(=O)COc2ccc(Cl)cc2)C3)c1` (some centres not stated) as the compound, how does the Potency read?
The Potency was inconclusive: 1.16 µM [activator, single point].

For `CCc1ccc(NCc2nc(-c3ccccc3)no2)cc1`, which Potency is on record?
The Potency was inconclusive: 9.2 µM [activator, partial curve, poor fit].

With `Cc1cccc(N=C2NC(=O)/C(=C/c3cccn3C)S2)c1C` as the compound, how does the Potency read?
Its Potency is “inactive”.

Which Potency does the source give for `O=C1c2ccc(-c3ccc4c(c3)C(=O)N(CCO)C4=O)cc2C(=O)N1CCO` here?
The Potency was “inactive”.

For `Cc1cc(C)cc(NC(=S)/C(=C(\[O-])c2ccc(Cl)cc2Cl)[n+]2ccccc2)c1`, which Potency is on record?
Its Potency is “inactive”.

For `CCC(=O)N1CCc2cc(S(=O)(=O)CCC(=O)Nc3nc(C)cs3)ccc21`, which Potency is on record?
The Potency was inconclusive: 20.6 µM [activator, single point].

Which Potency does the source give for `Cc1c(NC(=O)CCCN2C(=O)c3cccc4cccc(c34)C2=O)c(=O)n(-c2ccccc2)n1C` here?
Its Potency is inconclusive: 3.66 µM [activator, single point].

Which Potency does the source give for `COc1ccc(NC2=NCC(Cc3ccc(Br)cc3)S2)cc1` (configuration not stated) here?
The Potency was inconclusive: 29.1 µM [activator, single point].

With `CC(C)Cc1nc(Nc2ccc(S(=O)(=O)N3CCCC3)cc2)c2nnn(Cc3ccccc3)c2n1` as the compound, how does the Potency read?
The Potency was inconclusive: 18.4 µM [activator, partial curve, poor fit].

Which Potency does the source give for `O=C1C=Cc2ccccc2/C1=C/c1[nH]c(=O)[nH]c1O` here?
The Potency was “inactive”.

Which Potency does the source give for `NCc1ccccc1CS(=O)(=O)N1CCOCC1` here?
The Potency was “inactive”.

With `CC(C)C[C@H]1CNC(=S)N1CC1CCCN1C[C@H](Cc1ccccc1)N1C[C@H](Cc2ccc(O)cc2)N(CC2CCCCC2)C1=S` (some centres not stated) as the compound, how does the Potency read?
The Potency was active: 4.61 µM.

For `Cc1ccc(C2CC(=O)C=C(NCC(C)C)C2)cc1` (configuration not stated), which Potency is on record?
Its Potency is “inactive”.

Which Potency does the source give for `O=C(c1cccs1)N1N=C(c2ccccc2)CC1c1ccc(O)cc1` (configuration not stated) here?
Its Potency is “inactive”.

For `CCn1c(SCC(N)=O)nnc1-c1ccc(OC)c(OC)c1`, which Potency is on record?
Its Potency is “inactive”.

For `O=C(CN1CCN(c2ccccc2)CC1)N1CCN(c2ccccc2)CC1`, which Potency is on record?
Its Potency is “inactive”.

For `Cc1nonc1NC(=O)CSc1ccc(-c2ccccc2)nn1`, which Potency is on record?
Its Potency is “inactive”.

For `CCOC(=O)c1ccccc1NS(=O)(=O)c1ccc(C)cc1`, which Potency is on record?
Its Potency is inconclusive: 18.4 µM [activator, single point].

Which Potency does the source give for `N=c1ccn2c(n1)O[C@H]1[C@H](O)[C@@H](CO)O[C@H]12` here?
Its Potency is inconclusive: 94.4 nM [activator, full curve, poor fit] and inconclusive: 46.1 nM [activator, full curve, poor fit].

Which Potency does the source give for `CCCNC(=O)C1CCC(CNS(=O)(=O)c2ccc3c(c2)N(C(C)=O)CCO3)CC1` (configuration not stated) here?
Its Potency is inconclusive: 5.8 µM [activator, full curve, poor fit].

For `CCn1cc([N+](=O)[O-])c(C(=O)Nc2nc(-c3ccc(C)cc3)c(C)s2)n1`, which Potency is on record?
The Potency was inconclusive: 29.1 µM [activator, single point].

For `S=C(Nc1ccc(Nc2ccccc2)cc1)N1CCN(c2ncccn2)CC1`, which Potency is on record?
Its Potency is inconclusive: 0.731 µM [activator, partial curve, poor fit].

With `CSc1ccc(NC(=O)N2CC=C(n3c(=O)[nH]c4ccccc43)CC2)cc1` as the compound, how does the Potency read?
Its Potency is inconclusive: 29.1 µM [activator, single point].

With `Oc1ccc2ccccc2c1/C=N/Nc1nnc(-c2ncc[nH]2)c2ccccc12` as the compound, how does the Potency read?
Its Potency is active: 0.651 µM.

For `CCC(CC)CN1CCC(CN2CCNC(=O)C2=O)CC1`, which Potency is on record?
The Potency was “inactive”.

With `CCOC(=O)N1CCN(Cc2ccccc2Cl)CC1` as the compound, how does the Potency read?
Its Potency is “inactive”.

For `COc1ccc([N+](=O)[O-])cc1NC(=O)Nc1cccc(Cl)c1`, which Potency is on record?
Its Potency is inconclusive: 0.116 µM [activator, full curve, poor fit].

With `COC(=O)N1CCN(c2ccc(OC)cc2)CC1` as the compound, how does the Potency read?
The Potency was “inactive”.

Which Potency does the source give for `Cc1cccc(NC(=O)C2CCN(S(=O)(=O)c3ccc4c(c3)NC(=O)CO4)CC2)c1` here?
The Potency was “inactive”.

With `CCC(C)n1ncn(-c2ccc(N3CCN(c4ccc(OC)cc4)CC3)cc2)c1=O` (configuration not stated) as the compound, how does the Potency read?
The Potency was “inactive”.

With `COC(=O)c1cc(=O)n2c(sc3ccccc32)c1C#N` as the compound, how does the Potency read?
The Potency was active: 23.1 µM.

Which Potency does the source give for `CCCCC[C@H](O)/C=C/[C@@H]1[C@@H](C/C=C\CCCC(=O)O)[C@H]2CO[C@@H]1C2` here?
Its Potency is inconclusive: 16.4 µM [activator, partial curve, poor fit].

With `O=C(COC(=O)c1ccc(O)cc1O)NC(=O)c1ccccc1` as the compound, how does the Potency read?
Its Potency is inconclusive: 3.66 µM [activator, partial curve, poor fit].

Which Potency does the source give for `CC1(C)Oc2ccc(C(=O)N3CCCCC3)cc2N(CC(=O)NCc2ccccc2)C1=O` here?
Its Potency is “inactive”.

With `COc1ccc(O)c(C(=O)/C=C/c2cc3ccccc3o2)c1` as the compound, how does the Potency read?
Its Potency is inconclusive: 18.4 µM [activator, single point].

For `Cc1cccc(C2c3[nH]c4ccccc4c3CCN2C(=O)c2ccc(=O)[nH]c2)n1` (configuration not stated), which Potency is on record?
Its Potency is inconclusive: 18.4 µM [activator, single point].

For `COc1ccc2cc(C(C)C(=O)N3CCC(C)CC3)ccc2c1` (configuration not stated), which Potency is on record?
The Potency was inconclusive: 23.1 µM [activator, single point].

With `COc1ccc(C2CC2/C(=N/O)c2ccccn2)cc1` (configuration not stated) as the compound, how does the Potency read?
The Potency was inconclusive: 25.9 µM [activator, partial curve, poor fit].

With `Cc1ccc(-c2nc3cc(N)ccc3o2)cc1Br` as the compound, how does the Potency read?
Its Potency is inconclusive: 4.11 µM [activator, full curve, poor fit].

Which Potency does the source give for `COCCn1nnnc1C(c1cc2ccc(C)cc2[nH]c1=O)N(Cc1ccco1)Cc1cccs1` (configuration not stated) here?
The Potency was inconclusive: 18.4 µM [activator, partial curve, poor fit].

For `Cc1oc(=O)c(NC(=O)c2cccc(Cl)c2)cc1C(=O)c1ccccc1`, which Potency is on record?
The Potency was active: 20.6 µM.

Which Potency does the source give for `COc1ccc(NC(=O)C2(N(C(=O)Cn3nnnc3N)c3ccc(OC)cc3)CCCCC2)cc1` here?
The Potency was inconclusive: 11.6 µM [activator, partial curve, poor fit].

For `CCCCC1CCC(C(=O)N(CC(C)C)c2c(N)n(Cc3ccccc3)c(=O)[nH]c2=O)CC1` (configuration not stated), which Potency is on record?
The Potency was “inactive”.

Which Potency does the source give for `O=C(Nc1nnc(CSCc2ccc(F)cc2)s1)c1cccc([N+](=O)[O-])c1` here?
The Potency was inconclusive: 6.51 µM [activator, single point].
